Read-outs that look alike come from different tables or passages of the source. No constants are given. Whether binding was seen depends on the method and setting. In cells and extracts the contact can be indirect. Some results given as binding are weak or reduced against the parent protein; the word gives no strength. Sequences can lack the tags named with a protein. One block for each molecule: values may come before it.
Columns and labels:
[1] = molecular target: T1, HA-tagged Rpc160 (S. cerevisiae) (UniProt P04051); experiment: co-IP; 50 ug total yeast protein extract, pre-cleared, anti-HA agarose beads 2 hrs at 4°, six washes with 0.15 M Tris-HCl pH 7.8, 50 mM KAc, 20% glycerol, 1 mM EDTA, 0.5 mM DTT, 0.5% Triton-X100; western blot
T1 sequence: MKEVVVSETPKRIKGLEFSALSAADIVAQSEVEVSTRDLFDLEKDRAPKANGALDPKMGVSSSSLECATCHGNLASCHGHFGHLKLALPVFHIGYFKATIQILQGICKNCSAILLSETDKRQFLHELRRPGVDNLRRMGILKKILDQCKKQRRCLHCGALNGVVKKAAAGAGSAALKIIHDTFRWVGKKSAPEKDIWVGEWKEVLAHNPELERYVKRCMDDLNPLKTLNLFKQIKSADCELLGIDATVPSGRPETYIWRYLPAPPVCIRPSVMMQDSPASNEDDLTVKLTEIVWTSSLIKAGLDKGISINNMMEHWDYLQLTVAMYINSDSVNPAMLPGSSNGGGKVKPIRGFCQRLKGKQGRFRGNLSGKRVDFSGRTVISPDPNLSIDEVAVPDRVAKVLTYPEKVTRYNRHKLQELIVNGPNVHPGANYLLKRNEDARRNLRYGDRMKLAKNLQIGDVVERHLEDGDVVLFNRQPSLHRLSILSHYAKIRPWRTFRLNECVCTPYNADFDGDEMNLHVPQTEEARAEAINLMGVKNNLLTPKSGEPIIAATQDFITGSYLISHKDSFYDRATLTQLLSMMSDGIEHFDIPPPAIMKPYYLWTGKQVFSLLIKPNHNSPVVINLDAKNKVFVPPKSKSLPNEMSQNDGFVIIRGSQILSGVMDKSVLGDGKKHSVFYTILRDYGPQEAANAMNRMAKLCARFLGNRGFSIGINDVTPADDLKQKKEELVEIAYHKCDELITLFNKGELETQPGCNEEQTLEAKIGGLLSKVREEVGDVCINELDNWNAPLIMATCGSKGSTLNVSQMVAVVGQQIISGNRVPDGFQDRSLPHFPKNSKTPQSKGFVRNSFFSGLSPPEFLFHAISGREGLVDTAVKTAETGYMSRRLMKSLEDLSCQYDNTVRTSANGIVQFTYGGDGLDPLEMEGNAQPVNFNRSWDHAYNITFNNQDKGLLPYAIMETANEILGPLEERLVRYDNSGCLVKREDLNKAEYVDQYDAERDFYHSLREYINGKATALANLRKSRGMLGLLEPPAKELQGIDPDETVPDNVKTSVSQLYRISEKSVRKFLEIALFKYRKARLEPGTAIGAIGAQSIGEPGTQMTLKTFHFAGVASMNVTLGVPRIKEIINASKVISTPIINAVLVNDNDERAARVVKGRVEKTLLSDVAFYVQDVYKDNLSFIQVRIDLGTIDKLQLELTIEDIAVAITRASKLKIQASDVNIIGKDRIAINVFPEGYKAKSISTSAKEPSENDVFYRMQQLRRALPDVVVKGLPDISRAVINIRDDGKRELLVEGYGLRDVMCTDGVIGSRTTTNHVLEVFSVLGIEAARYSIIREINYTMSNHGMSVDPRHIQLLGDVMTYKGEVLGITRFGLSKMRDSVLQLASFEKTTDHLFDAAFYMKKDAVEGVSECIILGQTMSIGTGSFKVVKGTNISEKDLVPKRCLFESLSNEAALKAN

Sequences of proteins named here, by UniProt entry; tags and fusion partners are left off.
UniProt P16370: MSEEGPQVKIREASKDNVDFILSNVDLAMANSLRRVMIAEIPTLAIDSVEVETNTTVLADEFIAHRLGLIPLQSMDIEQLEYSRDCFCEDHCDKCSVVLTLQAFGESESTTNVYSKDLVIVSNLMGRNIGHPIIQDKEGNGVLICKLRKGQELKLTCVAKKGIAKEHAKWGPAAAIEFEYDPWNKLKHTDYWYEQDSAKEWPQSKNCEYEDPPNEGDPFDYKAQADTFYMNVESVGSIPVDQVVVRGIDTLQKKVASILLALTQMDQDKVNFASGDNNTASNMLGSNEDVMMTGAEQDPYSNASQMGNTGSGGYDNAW

[2] = molecular target: T1, HA-tagged Rpc160 (S. cerevisiae); experiment: as above; remark: listed apart in the source
[3] = molecular target: T2, 13-myc-tagged Iwr1 (S. cerevisiae) (UniProt Q07532); experiment: co-IP; reverse: immunoprecipitation of 13-myc-tagged Iwr1 (anti-MYC agarose beads) from yeast extract; data not shown
T2 sequence: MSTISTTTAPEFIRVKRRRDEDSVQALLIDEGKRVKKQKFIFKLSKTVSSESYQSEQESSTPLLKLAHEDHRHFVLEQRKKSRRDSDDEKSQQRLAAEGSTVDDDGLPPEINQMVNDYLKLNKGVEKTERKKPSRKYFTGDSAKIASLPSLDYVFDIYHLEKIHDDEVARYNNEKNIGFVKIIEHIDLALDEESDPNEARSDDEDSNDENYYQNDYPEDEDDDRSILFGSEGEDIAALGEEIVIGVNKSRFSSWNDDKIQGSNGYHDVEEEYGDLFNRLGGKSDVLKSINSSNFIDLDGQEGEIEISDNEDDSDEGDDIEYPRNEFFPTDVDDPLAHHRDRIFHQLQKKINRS

binding [1]: no binding
Molecule: Rpb3 (from UniProt P16370 1-318)

binding [2]: binds weakly
B1: 13-myc-tagged Iwr1 (protein, UniProt Q07532 1-353)
chain: MSTISTTTAPEFIRVKRRRDEDSVQALLIDEGKRVKKQKFIFKLSKTVSSESYQSEQESSTPLLKLAHEDHRHFVLEQRKKSRRDSDDEKSQQRLAAEGSTVDDDGLPPEINQMVNDYLKLNKGVEKTERKKPSRKYFTGDSAKIASLPSLDYVFDIYHLEKIHDDEVARYNNEKNIGFVKIIEHIDLALDEESDPNEARSDDEDSNDENYYQNDYPEDEDDDRSILFGSEGEDIAALGEEIVIGVNKSRFSSWNDDKIQGSNGYHDVEEEYGDLFNRLGGKSDVLKSINSSNFIDLDGQEGEIEISDNEDDSDEGDDIEYPRNEFFPTDVDDPLAHHRDRIFHQLQKKINRS

binding [3]: binds weakly
B2: HA-tagged Rpc160 (protein, UniProt P04051 1-1460)
chain: MKEVVVSETPKRIKGLEFSALSAADIVAQSEVEVSTRDLFDLEKDRAPKANGALDPKMGVSSSSLECATCHGNLASCHGHFGHLKLALPVFHIGYFKATIQILQGICKNCSAILLSETDKRQFLHELRRPGVDNLRRMGILKKILDQCKKQRRCLHCGALNGVVKKAAAGAGSAALKIIHDTFRWVGKKSAPEKDIWVGEWKEVLAHNPELERYVKRCMDDLNPLKTLNLFKQIKSADCELLGIDATVPSGRPETYIWRYLPAPPVCIRPSVMMQDSPASNEDDLTVKLTEIVWTSSLIKAGLDKGISINNMMEHWDYLQLTVAMYINSDSVNPAMLPGSSNGGGKVKPIRGFCQRLKGKQGRFRGNLSGKRVDFSGRTVISPDPNLSIDEVAVPDRVAKVLTYPEKVTRYNRHKLQELIVNGPNVHPGANYLLKRNEDARRNLRYGDRMKLAKNLQIGDVVERHLEDGDVVLFNRQPSLHRLSILSHYAKIRPWRTFRLNECVCTPYNADFDGDEMNLHVPQTEEARAEAINLMGVKNNLLTPKSGEPIIAATQDFITGSYLISHKDSFYDRATLTQLLSMMSDGIEHFDIPPPAIMKPYYLWTGKQVFSLLIKPNHNSPVVINLDAKNKVFVPPKSKSLPNEMSQNDGFVIIRGSQILSGVMDKSVLGDGKKHSVFYTILRDYGPQEAANAMNRMAKLCARFLGNRGFSIGINDVTPADDLKQKKEELVEIAYHKCDELITLFNKGELETQPGCNEEQTLEAKIGGLLSKVREEVGDVCINELDNWNAPLIMATCGSKGSTLNVSQMVAVVGQQIISGNRVPDGFQDRSLPHFPKNSKTPQSKGFVRNSFFSGLSPPEFLFHAISGREGLVDTAVKTAETGYMSRRLMKSLEDLSCQYDNTVRTSANGIVQFTYGGDGLDPLEMEGNAQPVNFNRSWDHAYNITFNNQDKGLLPYAIMETANEILGPLEERLVRYDNSGCLVKREDLNKAEYVDQYDAERDFYHSLREYINGKATALANLRKSRGMLGLLEPPAKELQGIDPDETVPDNVKTSVSQLYRISEKSVRKFLEIALFKYRKARLEPGTAIGAIGAQSIGEPGTQMTLKTFHFAGVASMNVTLGVPRIKEIINASKVISTPIINAVLVNDNDERAARVVKGRVEKTLLSDVAFYVQDVYKDNLSFIQVRIDLGTIDKLQLELTIEDIAVAITRASKLKIQASDVNIIGKDRIAINVFPEGYKAKSISTSAKEPSENDVFYRMQQLRRALPDVVVKGLPDISRAVINIRDDGKRELLVEGYGLRDVMCTDGVIGSRTTTNHVLEVFSVLGIEAARYSIIREINYTMSNHGMSVDPRHIQLLGDVMTYKGEVLGITRFGLSKMRDSVLQLASFEKTTDHLFDAAFYMKKDAVEGVSECIILGQTMSIGTGSFKVVKGTNISEKDLVPKRCLFESLSNEAALKAN

Source: paper PMC3112208
